# Values from PubChem BioAssay AID1224830 (NIAID, 2016).
# Purpose: 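Host factors that control LPS-induced TNF expression in human macrophages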 (primary screen)
# Cells: human THP-1 monocytic leukaemia cells, TNF dual-luciferase reporter clone, PMA-differentiated to macrophage-like cells
# Reagents: siRNA pool against human genes, 50 nM
# Duration: LPS for 4 h, given about 3 days after siRNA transfection
# Conditions: bacterial LPS (TLR4 ligand), 10 ng/ml
# Measurement: 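Ratio of firefly to renilla light, scaled to the plate median and expressed as a robust z-score per replicate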
# Scale: TNF reporter robust z-score: higher = stronger TNF reporter response to LPS
# Active means: 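a well is active when its z-score exceeds 2.8 or falls below -1.5; control wells carry no call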
# The deposit covers about 18,000 reagents; this is a random part of them. About 2,900 of all reagents (16%) count as active. 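Calls are made per well; low scores hint the gene aids the LPS response, high scores that it dampens it.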 Repeated entries: four replicate wells of each siRNA pool.
Target gene,TNF reporter robust z-score,Call
BORCS5 (BLOC-1 related complex subunit 5),-0.32,inactive
BORCS5 (BLOC-1 related complex subunit 5),0.69,inactive
BORCS5 (BLOC-1 related complex subunit 5),1.27,inactive
BORCS5 (BLOC-1 related complex subunit 5),0.23,inactive
UNC5C (unc-5 netrin receptor C),-1.26,inactive
UNC5C (unc-5 netrin receptor C),-1.02,inactive
UNC5C (unc-5 netrin receptor C),-1.16,inactive
UNC5C (unc-5 netrin receptor C),-0.8,inactive
CYTH2 (cytohesin 2),0.39,inactive
CYTH2 (cytohesin 2),-0.88,inactive
CYTH2 (cytohesin 2),-1.25,inactive
CYTH2 (cytohesin 2),-0.2,inactive
BRDT (bromodomain testis associated),0.5,inactive
BRDT (bromodomain testis associated),0.87,inactive
BRDT (bromodomain testis associated),3.45,active
BRDT (bromodomain testis associated),2.52,inactive
PAPOLA (poly(A) polymerase alpha),-1.06,inactive
PAPOLA (poly(A) polymerase alpha),-0.89,inactive
PAPOLA (poly(A) polymerase alpha),-0.82,inactive
PAPOLA (poly(A) polymerase alpha),0.13,inactive
SGK3 (serum/glucocorticoid regulated kinase family member 3),-0.83,inactive
SGK3 (serum/glucocorticoid regulated kinase family member 3),0.68,inactive
SGK3 (serum/glucocorticoid regulated kinase family member 3),-0.15,inactive
SGK3 (serum/glucocorticoid regulated kinase family member 3),0.29,inactive
NVL (nuclear VCP like),-0.87,inactive
NVL (nuclear VCP like),-0.31,inactive
NVL (nuclear VCP like),0.05,inactive
NVL (nuclear VCP like),-0.23,inactive
ADAMTS16 (ADAM metallopeptidase with thrombospondin type 1 motif 16),-1.1,inactive
ADAMTS16 (ADAM metallopeptidase with thrombospondin type 1 motif 16),-0.07,inactive
ADAMTS16 (ADAM metallopeptidase with thrombospondin type 1 motif 16),-0.86,inactive
ADAMTS16 (ADAM metallopeptidase with thrombospondin type 1 motif 16),-1.07,inactive
CD86 (CD86 molecule),-0.61,inactive
CD86 (CD86 molecule),-0.59,inactive
CD86 (CD86 molecule),-0.66,inactive
CD86 (CD86 molecule),-0.5,inactive
FOXQ1 (forkhead box Q1),0.2,inactive
FOXQ1 (forkhead box Q1),0.18,inactive
FOXQ1 (forkhead box Q1),-0.81,inactive
FOXQ1 (forkhead box Q1),0.62,inactive
TUBE1 (tubulin epsilon 1),0.76,inactive
TUBE1 (tubulin epsilon 1),-0.1,inactive
TUBE1 (tubulin epsilon 1),0.08,inactive
TUBE1 (tubulin epsilon 1),1.15,inactive
UBE2D1 (ubiquitin conjugating enzyme E2 D1),0.36,inactive
UBE2D1 (ubiquitin conjugating enzyme E2 D1),1.22,inactive
UBE2D1 (ubiquitin conjugating enzyme E2 D1),0.93,inactive
UBE2D1 (ubiquitin conjugating enzyme E2 D1),1.18,inactive
FHL3 (four and a half LIM domains 3),-0.26,inactive
FHL3 (four and a half LIM domains 3),0.31,inactive
FHL3 (four and a half LIM domains 3),0.03,inactive
FHL3 (four and a half LIM domains 3),-0.17,inactive
SLC2A12,-1.34,inactive
SLC2A12,-0.26,inactive
SLC2A12,-0.61,inactive
SLC2A12,-0.46,inactive
TYSND1 (trypsin like peroxisomal matrix peptidase 1),-0.63,inactive
TYSND1 (trypsin like peroxisomal matrix peptidase 1),-0.02,inactive
TYSND1 (trypsin like peroxisomal matrix peptidase 1),0.31,inactive
TYSND1 (trypsin like peroxisomal matrix peptidase 1),-0.42,inactive
CSF3R (colony stimulating factor 3 receptor),-0.05,inactive
CSF3R (colony stimulating factor 3 receptor),1.15,inactive
CSF3R (colony stimulating factor 3 receptor),1.3,inactive
CSF3R (colony stimulating factor 3 receptor),0.26,inactive
HPS4 (HPS4 biogenesis of lysosomal organelles complex 3 subunit 2),-0.31,inactive
HPS4 (HPS4 biogenesis of lysosomal organelles complex 3 subunit 2),-0.34,inactive
HPS4 (HPS4 biogenesis of lysosomal organelles complex 3 subunit 2),-1.07,inactive
HPS4 (HPS4 biogenesis of lysosomal organelles complex 3 subunit 2),0.59,inactive
ING5 (inhibitor of growth family member 5),-0.62,inactive
ING5 (inhibitor of growth family member 5),-0.2,inactive
ING5 (inhibitor of growth family member 5),-0.39,inactive
ING5 (inhibitor of growth family member 5),-0.13,inactive
LILRA4 (leukocyte immunoglobulin like receptor A4),-0.46,inactive
LILRA4 (leukocyte immunoglobulin like receptor A4),-0.5,inactive
LILRA4 (leukocyte immunoglobulin like receptor A4),-1.05,inactive
LILRA4 (leukocyte immunoglobulin like receptor A4),0.77,inactive
AARD (alanine and arginine rich domain containing protein),0.01,inactive
AARD (alanine and arginine rich domain containing protein),-0.66,inactive
AARD (alanine and arginine rich domain containing protein),0.04,inactive
AARD (alanine and arginine rich domain containing protein),-0.3,inactive
CAMK1D (calcium/calmodulin dependent protein kinase ID),-1.47,inactive
CAMK1D (calcium/calmodulin dependent protein kinase ID),-0.62,inactive
CAMK1D (calcium/calmodulin dependent protein kinase ID),-1.15,inactive
CAMK1D (calcium/calmodulin dependent protein kinase ID),-0.01,inactive
HSF2 (heat shock transcription factor 2),-0.49,inactive
HSF2 (heat shock transcription factor 2),0.21,inactive
HSF2 (heat shock transcription factor 2),0.04,inactive
HSF2 (heat shock transcription factor 2),0.22,inactive
KIAA1191,-0.59,inactive
KIAA1191,0.47,inactive
KIAA1191,0.42,inactive
KIAA1191,0.39,inactive
LDOC1 (LDOC1 regulator of NFKB signaling),2.15,inactive
LDOC1 (LDOC1 regulator of NFKB signaling),0.71,inactive
LDOC1 (LDOC1 regulator of NFKB signaling),1.55,inactive
LDOC1 (LDOC1 regulator of NFKB signaling),-0.99,inactive
"ST6GALNAC1 (ST6 N-acetylgalactosaminide alpha-2,6-sialyltransferase 1)",1.18,inactive
"ST6GALNAC1 (ST6 N-acetylgalactosaminide alpha-2,6-sialyltransferase 1)",3.1,active
"ST6GALNAC1 (ST6 N-acetylgalactosaminide alpha-2,6-sialyltransferase 1)",2.27,inactive
"ST6GALNAC1 (ST6 N-acetylgalactosaminide alpha-2,6-sialyltransferase 1)",3.77,active
TAT (tyrosine aminotransferase),1.04,inactive
TAT (tyrosine aminotransferase),0.91,inactive
TAT (tyrosine aminotransferase),0.15,inactive
TAT (tyrosine aminotransferase),-0.68,inactive
PON2 (paraoxonase 2),-0.32,inactive
PON2 (paraoxonase 2),-0.16,inactive
PON2 (paraoxonase 2),-0.49,inactive
PON2 (paraoxonase 2),0.74,inactive
PPEF1 (protein phosphatase with EF-hand domain 1),1.91,inactive
PPEF1 (protein phosphatase with EF-hand domain 1),-0.67,inactive
PPEF1 (protein phosphatase with EF-hand domain 1),-0.19,inactive
PPEF1 (protein phosphatase with EF-hand domain 1),-0.55,inactive

Records listed so far with an active call, once more:
Target gene,TNF reporter robust z-score,Call
BRDT (bromodomain testis associated),3.45,active
"ST6GALNAC1 (ST6 N-acetylgalactosaminide alpha-2,6-sialyltransferase 1)",3.1,active
"ST6GALNAC1 (ST6 N-acetylgalactosaminide alpha-2,6-sialyltransferase 1)",3.77,active
